From patent US9610365B2, “Anthracenyl-tetralactam macrocycles and their use in detecting a target saccharide” (UNIVERSITY OF BRISTOL, priority 2012, dated 2017)

Assay: 1H NMR titration, binding to carbohydrate substrate
Protocol: The binding of receptor compound 3 to carbohydrate substrates, in aqueous solution, was studied initially by ^1H NMR titrations at 298 K. The saccharides used as test substrates are shown in FIG. 7.
Titrations were performed on a Varian™ 500 MHz spectrometer. Solutions of reducing carbohydrates were prepared in D2O and kept overnight at room temperature before the titration experiments, in order to ensure equilibration of anomers. In a typical titration, aliquots of carbohydrate solution were added to receptor solution (DSS as internal standard) and the ^1H NMR spectra were recorded. Variations in chemical shifts were entered into a specifically written non-linear least squares curve-fitting program implemented within Excel™. Assuming 1:1 stoichiometry, the program calculates Ka and the limiting change in chemical shift Δδ. The assumption is supported by the generally good fits between observed and calculated data.

Which results are given for `O=C(O)CCOCC(COCCC(=O)O)(COCCC(=O)O)NC(=O)c1cc2cc(c1)C(=O)NCc1c3ccccc3c(c3ccccc13)CNC(=O)c1cc(cc(C(=O)NC(COCCC(=O)O)(COCCC(=O)O)COCCC(=O)O)c1)C(=O)NCc1c3ccccc3c(c3ccccc13)CNC2=O` [Compound 3]?
downfield shift of signal of externally-directed protons F on addition of glucose: ~0.15 ppm; Δδ, downfield movement of signal of internally-directed protons E on addition of glucose (limiting value): ~0.8 ppm
